These are yes or no findings as the source states them, for the method shown. Binding seen in cells or lysates may run through a third protein. Some results given as binding are weak or reduced against the parent protein; the word gives no strength.

Sequences of proteins named here, by UniProt entry; tags and fusion partners are left off.
UniProt P33552: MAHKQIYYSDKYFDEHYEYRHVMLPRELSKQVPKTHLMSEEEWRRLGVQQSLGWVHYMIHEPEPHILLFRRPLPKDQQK

Experimental findings from publication PMC11905417 are described below.

The target of the experiment is T1, thioredoxin (TXN) (human (endogenous in MM cells: MM.1S, RPMI-8226)) (UniProt P10599).
T1 sequence: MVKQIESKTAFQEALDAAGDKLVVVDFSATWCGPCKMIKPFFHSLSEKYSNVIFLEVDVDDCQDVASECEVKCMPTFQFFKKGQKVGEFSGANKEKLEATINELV
Nature of the experiment: co-IP; MM cells lysed with NP-40 on ice; 4 ug anti-TXN antibody (IgG as control) overnight at 4°C, magnetic beads 4 h at 4°C, washed with NP-40 lysis buffer; detection by western blot. Background: Immunoblotting shows a protein as a band on a membrane.

As for “cyclin-dependent kinase regulatory subunit 2 (CKS2) (from UniProt P33552 1-79)”, the binding result was “binds”.
